# Primary screen of a compound library

The chains behind the UniProt entries cited, without tags or fusion partners. Residues count along the entry.
UniProt Q4DA54, 1-478: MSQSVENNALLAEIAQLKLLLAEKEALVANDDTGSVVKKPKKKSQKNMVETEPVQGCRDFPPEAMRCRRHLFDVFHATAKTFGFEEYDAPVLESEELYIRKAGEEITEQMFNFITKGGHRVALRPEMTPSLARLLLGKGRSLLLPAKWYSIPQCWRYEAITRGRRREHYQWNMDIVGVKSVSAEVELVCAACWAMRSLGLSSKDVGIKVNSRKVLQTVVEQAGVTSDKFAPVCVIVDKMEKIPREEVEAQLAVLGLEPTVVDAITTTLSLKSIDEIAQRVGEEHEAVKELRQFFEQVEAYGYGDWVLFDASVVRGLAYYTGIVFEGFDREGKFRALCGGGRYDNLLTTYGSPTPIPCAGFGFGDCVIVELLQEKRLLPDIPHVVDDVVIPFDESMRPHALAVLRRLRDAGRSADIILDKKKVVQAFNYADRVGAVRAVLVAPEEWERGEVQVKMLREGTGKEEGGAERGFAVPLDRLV
UniProt I6X8D2, whole entry: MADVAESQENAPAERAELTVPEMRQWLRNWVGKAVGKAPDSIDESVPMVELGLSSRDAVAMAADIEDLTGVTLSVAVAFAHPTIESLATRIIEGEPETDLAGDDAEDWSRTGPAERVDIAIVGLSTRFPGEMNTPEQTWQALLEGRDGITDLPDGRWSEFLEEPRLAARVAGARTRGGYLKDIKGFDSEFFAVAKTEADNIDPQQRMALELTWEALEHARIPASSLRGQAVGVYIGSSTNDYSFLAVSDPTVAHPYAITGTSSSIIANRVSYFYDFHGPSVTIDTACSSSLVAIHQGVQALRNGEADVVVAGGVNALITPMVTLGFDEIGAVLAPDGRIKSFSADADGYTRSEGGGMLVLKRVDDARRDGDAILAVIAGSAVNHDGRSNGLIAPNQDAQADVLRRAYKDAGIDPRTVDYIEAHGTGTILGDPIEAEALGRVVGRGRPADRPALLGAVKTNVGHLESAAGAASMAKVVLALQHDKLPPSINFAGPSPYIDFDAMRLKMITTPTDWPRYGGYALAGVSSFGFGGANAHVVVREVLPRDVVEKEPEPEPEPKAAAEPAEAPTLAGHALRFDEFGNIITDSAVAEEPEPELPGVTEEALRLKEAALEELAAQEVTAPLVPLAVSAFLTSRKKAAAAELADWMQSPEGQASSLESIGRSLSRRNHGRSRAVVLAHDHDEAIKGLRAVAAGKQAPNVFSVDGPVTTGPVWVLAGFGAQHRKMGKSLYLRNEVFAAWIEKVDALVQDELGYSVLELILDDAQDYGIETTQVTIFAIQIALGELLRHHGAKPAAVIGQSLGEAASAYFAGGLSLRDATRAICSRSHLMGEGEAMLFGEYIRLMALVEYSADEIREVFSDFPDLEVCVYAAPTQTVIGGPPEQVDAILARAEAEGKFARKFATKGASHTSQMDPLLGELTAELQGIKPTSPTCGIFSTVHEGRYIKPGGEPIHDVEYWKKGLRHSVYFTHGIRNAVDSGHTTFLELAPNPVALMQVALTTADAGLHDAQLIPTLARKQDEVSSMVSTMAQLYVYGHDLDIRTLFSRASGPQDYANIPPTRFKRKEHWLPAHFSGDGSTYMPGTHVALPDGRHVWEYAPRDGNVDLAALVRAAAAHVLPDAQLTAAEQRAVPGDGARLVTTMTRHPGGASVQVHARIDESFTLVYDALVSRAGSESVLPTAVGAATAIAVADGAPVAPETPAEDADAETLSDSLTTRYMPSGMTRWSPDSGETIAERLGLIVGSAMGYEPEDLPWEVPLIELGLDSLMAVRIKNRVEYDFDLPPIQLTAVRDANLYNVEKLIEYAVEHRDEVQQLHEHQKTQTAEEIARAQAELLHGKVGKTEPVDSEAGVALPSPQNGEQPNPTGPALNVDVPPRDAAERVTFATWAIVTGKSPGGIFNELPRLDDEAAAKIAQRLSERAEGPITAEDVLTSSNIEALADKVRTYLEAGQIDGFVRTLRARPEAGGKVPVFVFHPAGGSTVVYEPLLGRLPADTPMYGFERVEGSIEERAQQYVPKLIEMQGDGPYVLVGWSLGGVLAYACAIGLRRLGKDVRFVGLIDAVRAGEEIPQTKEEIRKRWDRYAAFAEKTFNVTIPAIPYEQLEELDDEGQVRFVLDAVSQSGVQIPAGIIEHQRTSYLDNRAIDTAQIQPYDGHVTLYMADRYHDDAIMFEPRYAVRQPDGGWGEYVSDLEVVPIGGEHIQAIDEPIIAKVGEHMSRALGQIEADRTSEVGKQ
UniProt P9WNZ1, whole entry: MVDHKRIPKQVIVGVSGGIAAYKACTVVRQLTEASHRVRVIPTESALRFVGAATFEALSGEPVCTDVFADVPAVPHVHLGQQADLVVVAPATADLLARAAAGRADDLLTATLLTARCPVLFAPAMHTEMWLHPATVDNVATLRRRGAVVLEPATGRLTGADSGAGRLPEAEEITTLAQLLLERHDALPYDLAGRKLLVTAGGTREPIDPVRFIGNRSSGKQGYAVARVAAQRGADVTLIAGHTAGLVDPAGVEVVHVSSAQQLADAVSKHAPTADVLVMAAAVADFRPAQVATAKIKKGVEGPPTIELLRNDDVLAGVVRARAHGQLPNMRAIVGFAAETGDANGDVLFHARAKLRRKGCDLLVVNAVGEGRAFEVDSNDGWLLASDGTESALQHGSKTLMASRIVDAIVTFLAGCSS
UniProt Q8IDJ8, 1-583: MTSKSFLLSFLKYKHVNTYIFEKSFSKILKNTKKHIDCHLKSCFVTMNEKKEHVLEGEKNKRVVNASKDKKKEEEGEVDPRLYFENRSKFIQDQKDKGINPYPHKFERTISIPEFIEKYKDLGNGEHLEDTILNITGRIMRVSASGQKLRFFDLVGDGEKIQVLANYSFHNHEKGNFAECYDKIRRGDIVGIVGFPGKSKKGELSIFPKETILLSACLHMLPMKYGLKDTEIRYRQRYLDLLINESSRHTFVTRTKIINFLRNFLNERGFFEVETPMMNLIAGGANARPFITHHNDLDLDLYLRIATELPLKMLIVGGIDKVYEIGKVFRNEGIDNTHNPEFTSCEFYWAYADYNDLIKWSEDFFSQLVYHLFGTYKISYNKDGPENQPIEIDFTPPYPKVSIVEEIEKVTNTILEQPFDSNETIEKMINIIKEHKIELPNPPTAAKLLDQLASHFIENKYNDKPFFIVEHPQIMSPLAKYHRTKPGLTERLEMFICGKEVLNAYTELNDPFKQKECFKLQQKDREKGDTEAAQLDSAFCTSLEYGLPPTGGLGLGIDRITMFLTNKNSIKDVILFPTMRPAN
UniProt P9WFT3, whole entry: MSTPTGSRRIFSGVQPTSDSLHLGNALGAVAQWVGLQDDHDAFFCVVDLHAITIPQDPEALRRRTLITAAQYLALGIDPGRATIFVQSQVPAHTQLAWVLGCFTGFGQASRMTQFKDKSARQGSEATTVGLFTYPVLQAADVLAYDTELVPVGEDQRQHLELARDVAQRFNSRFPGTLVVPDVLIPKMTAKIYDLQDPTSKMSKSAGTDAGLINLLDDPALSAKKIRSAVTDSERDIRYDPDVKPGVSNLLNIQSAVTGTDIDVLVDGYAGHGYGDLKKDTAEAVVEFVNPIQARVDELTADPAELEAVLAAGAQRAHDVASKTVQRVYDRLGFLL

TcHisRS: 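Enzyme assay of histidyl-tRNA synthetase; the read-out is not stated. Target: Histidine-tRNA ligase, Trypanosoma cruzi CL Brener (UniProt Q4DA54). Compounds at 30 µM. Higher reads as stronger inhibition (inferred: compounds with an IC50 in retests scored well above the rest). Of about 69,000 compounds tested this way, about 31 (0.045%) reached 50% or more in at least one test.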
Pks13 thioesterase: 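Polyketide synthase Pks13, Mycobacterium tuberculosis (UniProt I6X8D2). Enzyme assay of the thioesterase domain of polyketide synthase 13; the read-out is not stated. Tested at 30 µM. Higher reads as stronger inhibition (inferred from which compounds were picked for retests). Size under these conditions: about 67,000 compounds, about 300 of them at 50% or above in at least one test.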
CoaBC: 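Enzyme assay of CoaBC with a phosphate dye (Biomol Green) read at 650 nm. Target: Coenzyme A biosynthesis protein CoaBC, Mycobacterium tuberculosis (UniProt P9WNZ1). Tested at 30 µM. Higher reads as stronger inhibition, judged from the few compounds that gave an IC50. Most strong results did not repeat in a second test. Of about 67,000 compounds tested this way, about 40 (0.06%) reached 50% or more in at least one test.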
Leishmania in macrophages: 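Cell assay of Leishmania donovani living inside macrophages; the read-out is not stated. Compounds at 30 µM. The record gives no direction; compounds that gave an IC50 in retests scored well above the rest, so higher reads as stronger inhibition. About 69,000 compounds were tested under these conditions; 1.5% (about 1,000) showed 50% or more at least once.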
PfKRS1: 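Enzyme assay of the cytosolic lysyl-tRNA synthetase in 384-well plates, read by luminescence. Target: Lysine-tRNA ligase, Plasmodium falciparum 3D7 (UniProt Q8IDJ8). Tested at 30 µM. Higher reads as stronger inhibition, judged from the few compounds that gave an IC50. Of about 69,000 compounds tested this way, about 49 (0.071%) reached 50% or more in at least one test.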
MtTrpRS: 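Tryptophan-tRNA ligase, Mycobacterium tuberculosis (UniProt P9WFT3). Enzyme assay of tryptophanyl-tRNA synthetase; the read-out is not stated. Compounds at 10 µM. Direction is not recorded; retested compounds ran higher, which suggests that high means inhibition. Size under these conditions: about 65,000 compounds, about 64 of them at 50% or above in at least one test.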

Values are the deposited “Percent Effect”, in %.
The controls that fix the scale are not given in the record; negative values are as filed.
The compounds are a random part of those screened.
Two or more numbers in one place are separate tests of the same structure; such repeats can differ widely.
A dash means the value is not listed here; it may have been measured.

{"compound": "CCOCCCNC(=O)c1cc(C)nc(N2CCCCC2)n1", "TcHisRS": 4.348, "Pks13 thioesterase": 5.913, "CoaBC": -82.68, "Leishmania in macrophages": -60.53, "PfKRS1": 0.6273, "MtTrpRS": 0.6477}
{"compound": "COCC(=O)N1CCC2(CC1)CC(OC)CO2", "stereo": "configuration not stated", "TcHisRS": 6.135, "Pks13 thioesterase": -28.7, "Leishmania in macrophages": 7.215, "PfKRS1": 2.186, "MtTrpRS": 1.066}
{"compound": "CC(C)S(=O)(=O)NC(=O)CC(c1ccccc1)C(F)(F)F", "stereo": "configuration not stated", "TcHisRS": 2.299, "Pks13 thioesterase": -32.23, "CoaBC": 6, "Leishmania in macrophages": 17.43, "PfKRS1": -4.767, "MtTrpRS": -2.773}
{"compound": "CN(CC1CCN(CCO)CC1)CC(O)c1ccc(F)c(F)c1", "stereo": "configuration not stated", "TcHisRS": 4.598, "Pks13 thioesterase": 13.96, "CoaBC": -14.8, "Leishmania in macrophages": 32.26, "PfKRS1": -0.8196, "MtTrpRS": 4.92}
{"compound": "O=C(CCC(=O)N1CCCC1c1ccsc1)N1CCOCC1", "stereo": "configuration not stated", "TcHisRS": 5.804, "Pks13 thioesterase": 1.915, "CoaBC": 0.5102, "Leishmania in macrophages": -2.311, "PfKRS1": 8.896, "MtTrpRS": -1.528}
{"compound": "CC1=C(CCN2CCCC(O)C2)C(C)(C)CCC1", "stereo": "configuration not stated", "TcHisRS": 5.063, "Pks13 thioesterase": -6.867, "CoaBC": 1.202, "Leishmania in macrophages": 25.33, "PfKRS1": 0.2138, "MtTrpRS": 0.5708}
{"compound": "CC(=O)Nc1nc(CN2CCCC2Cn2cccn2)cs1", "stereo": "configuration not stated", "TcHisRS": 2.941, "Pks13 thioesterase": -1.521, "CoaBC": 4.146, "Leishmania in macrophages": 0.1121, "PfKRS1": 2.398, "MtTrpRS": -1.655}
{"compound": "CC(C)[C@@H]1CN(S(=O)(=O)Cc2ccccc2)C[C@H]1NS(=O)(=O)N(C)C", "TcHisRS": 5.82, "Pks13 thioesterase": -5.532, "CoaBC": 3.666, "Leishmania in macrophages": 4.823, "PfKRS1": 2.355, "MtTrpRS": -4.856}
{"compound": "O=C(NCCc1ccncc1)[C@H]1C[C@@H]2CCN(c3nncs3)C[C@H]2O1", "TcHisRS": 1.869, "Pks13 thioesterase": -3.003, "CoaBC": "7.732 & 45.43", "PfKRS1": -0.6251, "MtTrpRS": 0.2722}
{"compound": "Fc1cccc(CN2CCC(c3cc4ncccc4cn3)CC2)c1F", "TcHisRS": 33.85, "Pks13 thioesterase": 7.207, "CoaBC": 14.73, "PfKRS1": 2.528, "MtTrpRS": -3.601}
{"compound": "CCn1cncc1CN1CCN(CC2(c3ccc(C)cc3)CC2)CC1", "TcHisRS": 13.16, "Pks13 thioesterase": -30.6, "CoaBC": 9.091, "PfKRS1": -1.678, "MtTrpRS": 16}
{"compound": "COc1ccc(NC2CCN(C3CC3)C2=O)cn1", "stereo": "configuration not stated", "TcHisRS": 12.64, "Pks13 thioesterase": -10.77, "CoaBC": 1.353, "Leishmania in macrophages": 28.99, "PfKRS1": 0.9064, "MtTrpRS": 2.91}
{"compound": "COc1ccccc1OCc1cc(C(=O)N2C[C@@H](C)O[C@@H](C)C2)n[nH]1", "TcHisRS": 1.058, "Pks13 thioesterase": -20.62, "CoaBC": 4.931, "Leishmania in macrophages": -2.97, "PfKRS1": -0.1714, "MtTrpRS": 2.862}
{"compound": "Cc1cc(Cl)ccc1S(=O)(=O)NCC(C)N1CCN(C)CC1", "stereo": "configuration not stated", "TcHisRS": 11.31, "Pks13 thioesterase": -9.834, "CoaBC": 1.34, "Leishmania in macrophages": -4.922, "PfKRS1": 1.66, "MtTrpRS": 0.7158}
{"compound": "CN(Cc1ccco1)C(=O)NCc1nnc2n1CCC2", "TcHisRS": 0.9852, "Pks13 thioesterase": -25.49, "CoaBC": 4.167, "Leishmania in macrophages": 44.32, "PfKRS1": 6.599, "MtTrpRS": -0.2646}
{"compound": "CCCNC(=O)C1(CC2CC(c3ccccc3OC)=NO2)CCOCC1", "stereo": "configuration not stated", "TcHisRS": 0.7463, "Pks13 thioesterase": 6.265, "CoaBC": 2.19, "Leishmania in macrophages": "21.07 & 13.49", "PfKRS1": -0.02304, "MtTrpRS": 3.768}
{"compound": "Cc1ncc2c(n1)CN(C(C(N)=O)c1ccccc1)CC2", "stereo": "configuration not stated", "TcHisRS": 13.81, "Pks13 thioesterase": -12.21, "CoaBC": 6.865, "Leishmania in macrophages": 26, "PfKRS1": 2.153, "MtTrpRS": 2.621}
{"compound": "O=C(C1CCOCC1)N1C[C@@H](F)[C@@H](OCc2nc3cc(F)ccc3[nH]2)C1", "TcHisRS": 6.522, "CoaBC": 2.87, "Leishmania in macrophages": 7.915, "PfKRS1": 5.246, "MtTrpRS": -0.07588}
{"compound": "[H][C@]12CCCCN1CCC[C@H]2CCC(=O)NCCc1cc(O)ncn1", "Leishmania in macrophages": 26}
{"compound": "CN1CCOC(CNCc2coc(-c3ccccc3Cl)n2)C1", "stereo": "configuration not stated", "TcHisRS": 2.907, "Pks13 thioesterase": -12.11, "CoaBC": 5.044, "Leishmania in macrophages": 24.57, "PfKRS1": 0.006809, "MtTrpRS": -2.531}
{"compound": "CC(C)CN1CC(C(=O)N(C)CCc2cn[nH]c2)CC1=O", "stereo": "configuration not stated", "TcHisRS": 3.571, "Pks13 thioesterase": -13.72, "CoaBC": -1.225, "Leishmania in macrophages": 11.83, "PfKRS1": 0.6144, "MtTrpRS": -2.84}
{"compound": "Nc1cccnc1N1CCN(c2ccccc2)CC1", "TcHisRS": -2.083, "Pks13 thioesterase": -6.381, "CoaBC": -2.532, "Leishmania in macrophages": 7.915, "PfKRS1": 3.387, "MtTrpRS": -9.578}
{"compound": "[H][C@@]12CO[C@@H](CNC(=O)c3ccco3)[C@]1([H])CCN(c1cccc(C)n1)C2", "Leishmania in macrophages": 2.425}
{"compound": "[H][C@@]12OCCN(C(=O)c3ccc(OC)c(F)c3)[C@@]1([H])CC[C@@H]2OCC1CC1", "Leishmania in macrophages": 19.63}
{"compound": "Cc1nc(CC(=O)N2CCC(c3nn(C)c4ncccc34)CC2)cs1.Cl", "Leishmania in macrophages": 1.969}
{"compound": "O=C(c1cccc2cccnc12)N1CCCN(c2cccnn2)CC1", "TcHisRS": 0.3774, "Pks13 thioesterase": -19.7, "CoaBC": 13.08, "Leishmania in macrophages": 33.12, "PfKRS1": 8.582, "MtTrpRS": 0.86}

For reference, 2 entries once more:

Compound,TcHisRS,Pks13 thioesterase,CoaBC,Leishmania in macrophages,PfKRS1,MtTrpRS
CC(=O)Nc1nc(CN2CCCC2Cn2cccn2)cs1 (configuration not stated),2.941%,-1.521%,4.146%,0.1121%,2.398%,-1.655%
Fc1cccc(CN2CCC(c3cc4ncccc4cn3)CC2)c1F,33.85%,7.207%,14.73%,-,2.528%,-3.601%

Measurements from “University of Dundee, Small-Polar-MMV Screening Library” (2021), ChEMBL document CHEMBL3988442.